Shown are survivors of the treated group in tumour-free mice. Survivors were counted at the toxicity check, usually on the fifth day, unless a day is given; later deaths do not show. Schedules are NCI's codes, read here as Q, the interval in days (D) or hours (H), X, the number of doses.
System: CD2F1 mice, nontumored, toxicity/survival
Assay: NCI In Vivo Anticancer Drug Screen. Data for tumor model Nontumored Animals (Toxicity Test) in CD2F1 (CDF1) mice
Details: vehicle: other

Measured: survivor count

Nc1ncnc2c1ccn2C1OC(CO)C(O)C1O (stereo not given)
7 of 8: dose: 0.13 mg/kg/injection, schedule: Q03HX024 (ip) | dose: 0.5 mg/kg/injection, schedule: Q03HX008 (ip) | dose: 8.0 mg/kg/injection, schedule: Q08DX002 (ip) | dose: 16.0 mg/kg/injection, schedule: Q08DX002 (ip)
8 of 8: dose: 0.06 mg/kg/injection, schedule: Q03HX024 (ip) | dose: 0.13 mg/kg/injection, schedule: Q03HX008 (ip) | dose: 0.13 mg/kg/injection, schedule: Q03HX016 (ip) | dose: 0.25 mg/kg/injection, schedule: Q01DX009 (ip) | dose: 0.25 mg/kg/injection, schedule: Q01DX009 (sc) | dose: 0.25 mg/kg/injection, schedule: Q03HX008 (ip) | dose: 0.25 mg/kg/injection, schedule: Q03HX016 (ip) | dose: 0.25 mg/kg/injection, schedule: Q03HX024 (ip) | dose: 0.5 mg/kg/injection, schedule: Q01DX009 (ip) | dose: 0.5 mg/kg/injection, schedule: Q01DX009 (oral) | dose: 0.5 mg/kg/injection, schedule: Q01DX009 (sc) | dose: 0.5 mg/kg/injection, schedule: Q03HX016 (ip) | dose: 0.5 mg/kg/injection, schedule: Q03HX024 (ip) | dose: 0.5 mg/kg/injection, schedule: Q04DX003 (ip) | dose: 1.0 mg/kg/injection, schedule: Q01DX001 (ip) | dose: 1.0 mg/kg/injection, schedule: Q01DX001 (sc) | dose: 1.0 mg/kg/injection, schedule: Q01DX009 (ip) | dose: 1.0 mg/kg/injection, schedule: Q01DX009 (oral) | dose: 1.0 mg/kg/injection, schedule: Q01DX009 (sc) | dose: 1.0 mg/kg/injection, schedule: Q03HX008 (ip) | dose: 1.0 mg/kg/injection, schedule: Q03HX024 (ip) | dose: 1.0 mg/kg/injection, schedule: Q04DX003 (ip) | dose: 1.0 mg/kg/injection, schedule: Q08DX002 (ip) | dose: 2.0 mg/kg/injection, schedule: Q01DX001 (ip) | dose: 2.0 mg/kg/injection, schedule: Q01DX001 (oral) | dose: 2.0 mg/kg/injection, schedule: Q01DX001 (sc) | dose: 2.0 mg/kg/injection, schedule: Q01DX009 (ip) | dose: 2.0 mg/kg/injection, schedule: Q01DX009 (oral) | dose: 2.0 mg/kg/injection, schedule: Q01DX009 (sc) | dose: 2.0 mg/kg/injection, schedule: Q04DX003 (ip) | dose: 2.0 mg/kg/injection, schedule: Q08DX002 (ip) | dose: 4.0 mg/kg/injection, schedule: Q01DX001 (ip) | dose: 4.0 mg/kg/injection, schedule: Q01DX001 (oral) | dose: 4.0 mg/kg/injection, schedule: Q01DX001 (sc) | dose: 4.0 mg/kg/injection, schedule: Q01DX009 (ip) | dose: 4.0 mg/kg/injection, schedule: Q01DX009 (oral) | dose: 4.0 mg/kg/injection, schedule: Q01DX009 (sc) | dose: 4.0 mg/kg/injection, schedule: Q04DX003 (ip) | dose: 4.0 mg/kg/injection, schedule: Q08DX002 (ip) | dose: 8.0 mg/kg/injection, schedule: Q01DX001 (ip) | dose: 8.0 mg/kg/injection, schedule: Q01DX001 (oral) | dose: 8.0 mg/kg/injection, schedule: Q01DX001 (sc) | dose: 8.0 mg/kg/injection, schedule: Q01DX009 (oral) | dose: 8.0 mg/kg/injection, schedule: Q04DX003 (ip) | dose: 16.0 mg/kg/injection, schedule: Q01DX001 (oral) | dose: 16.0 mg/kg/injection, schedule: Q01DX001 (sc)
3 of 8: dose: 2.0 mg/kg/injection, schedule: Q03HX008 (ip) | dose: 2.0 mg/kg/injection, schedule: Q03HX016 (ip)
2 of 8: dose: 16.0 mg/kg/injection, schedule: Q01DX001 (ip)
6 of 8: dose: 1.0 mg/kg/injection, schedule: Q03HX016 (ip) | dose: 32.0 mg/kg/injection, schedule: Q01DX001 (oral)

From PubChem BioAssay AID188 (DTP/NCI, 2004)
